Experimental data: PubChem BioAssay AID1159584 (Peter MacCallum Cancer Centre, 2016)

- Aim: 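Knock-downs that harm CDH1-null cells more than parental MCF10A cells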 (primary screen)
- Cells: human MCF10A breast epithelial cells, parental and CDH1-null
- Knock-down reagent: siRNA against human genes
- Measurement: 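ATP luminescence (CellTiter-Glo) viability per line relative to mean mock wells over all plates, and the ratio of CDH1-null to parental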
- Reading the numbers: CDH1-null / parental viability ratio: higher = CDH1-null cells survive relatively better than parental
The deposit covers about 18,000 reagents; below is a part drawn at random. Not all columns of the deposit are shown. The record does not give: the amount of reagent, the time to read-out.

| gene | PubChem SID | CDH1-null / parental viability ratio |
| --- | --- | --- |
| GCK | SID56479241 | 1.1 |
| TTC7B | SID152150532 | 0.76 |
| PLA2G1B | SID134313721 | 1.1 |
| SCAND3 | SID135624499 | 1.09 |
| CXCR5 | SID135620990 | 1.35 |
| RAB28 | SID135621599 | 0.92 |
| IKBKG | SID152147833 | 0.92 |
| TNN | SID152151701 | 0.84 |
| FMNL1 | SID152149280 | 0.87 |
| LRRC74A | SID152155618 | 0.98 |
| CYP39A1 | SID134313305 | 0.75 |
| APH1B | SID152150696 | 1.4 |
| GNAT1 | SID134314535 | 0.62 |
| NLRC4 | SID134310434 | 1.27 |
| TMF1 | SID135620928 | 0.94 |
| SRRD | SID152151117 | 0.97 |
| PDE6D | SID152152384 | 1.07 |
| ALMS1 | SID152150633 | 1.09 |
| FBXO36 | SID152153720 | 0.86 |
| GID4 | SID134321283 | 0.92 |
| AAGAB | SID152149744 | 0.79 |
| CXCL13 | SID134312811 | 1.02 |
| TSPY1 | SID152151493 | 1.27 |
| TAS2R8 | SID134314666 | 0.84 |
| RRP9 | SID152152435 | 0.9 |
| SOBP | SID152156679 | 1.45 |
| DYRK1A | SID135620889 | 0.98 |
| KCNE1 | SID152150181 | 1.14 |
| CMTR1 | SID134318319 | 1.31 |
| FAXDC2 | SID152154305 | 1.25 |
| ENKUR | SID135623063 | 1.11 |
| GGPS1 | SID135623152 | 0.97 |
| MCTS1 | SID134324270 | 0.9 |
| CDK6 | SID56478600 | 0.83 |
| LHB | SID152151937 | 1.03 |
| ZNF641 | SID152147725 | 0.81 |
| ADRA1A | SID135620983 | 0.9 |
| ITGB2 | SID135621489 | 0.99 |
| ZNF749 | SID152148158 | 0.91 |
| TNNT3 | SID135623834 | 1.08 |
| GMIP | SID152147973 | 1.09 |
| PBXIP1 | SID134319472 | 0.87 |
| CDC6 | SID152151563 | 1.27 |
| DEFB119 | SID135624221 | 0.95 |
| DIRAS1 | SID152151711 | 0.68 |
| LRMDA | SID135622814 | 1.12 |
| ZNF627 | SID135625035 | 1.09 |
| CD207 | SID152149786 | 0.79 |
| SFSWAP | SID152152651 | 1.03 |
| FA2H | SID134314353 | 0.92 |
| C6orf163 | SID135624483 | 1.07 |
| CCL4L1 | SID152148658 | 0.83 |
| NEURL1 | SID134320695 | 0.77 |
| CLEC2D | SID152147743 | 0.94 |
| CACNA1H | SID152150286 | 1.11 |
| STH | SID135625250 | 0.9 |
| C1RL | SID134312756 | 1.69 |
| RAD17 | SID56478634 | 1.15 |
| MED30 | SID134319292 | 0.88 |
| TMPRSS11E | SID152147324 | 0.93 |
| PIP5K1B | SID152154468 | 1.03 |
| ANO4 | SID134322402 | 0.99 |
| GMEB1 | SID134316566 | 0.97 |
| OR3A1 | SID134313876 | 0.86 |
| TPSG1 | SID135621134 | 1.06 |
| TBC1D24 | SID135624337 | 1.19 |
| HSPG2 | SID135622685 | 0.84 |
| EVI5L | SID56479276 | 1.02 |
| ZG16B | SID152149022 | 1.3 |
| DHRS4L2 | SID152149329 | 1.14 |
| MED16 | SID134310061 | 0.79 |
| LHX6 | SID152151312 | 1.15 |
| ZNF124 | SID134323536 | 1.24 |
| MTMR8 | SID134312974 | 1.48 |
| ATOX1 | SID152148161 | 0.88 |
| OR5B2 | SID134329953 | 1.11 |
| SEC31A | SID134318342 | 1.09 |
| TRAPPC4 | SID152153516 | 1.02 |
| NDUFS2 | SID152156422 | 1.05 |
| ZNF100 | SID152150680 | 1.55 |
| OR4K17 | SID135624903 | 1.16 |
| SUPT3H | SID152154460 | 1.03 |
| CFAP161 | SID152156462 | 0.65 |
| TYW5 | SID152150082 | 0.95 |
| ATG5 | SID152156214 | 1 |
| PLCB4 | SID134314325 | 0.98 |
| ICAM5 | SID134317275 | 0.97 |

An excerpt from the list above, for reference:
| gene | PubChem SID | CDH1-null / parental viability ratio |
| --- | --- | --- |
| ZNF100 | SID152150680 | 1.55 |
| OR4K17 | SID135624903 | 1.16 |
| SUPT3H | SID152154460 | 1.03 |
| CFAP161 | SID152156462 | 0.65 |
| TYW5 | SID152150082 | 0.95 |
| ATG5 | SID152156214 | 1 |
| PLCB4 | SID134314325 | 0.98 |
| ICAM5 | SID134317275 | 0.97 |
